Experimental data reported in PMC11811183.
No constants are given. Whether binding was seen depends on the method and setting. Binding seen in cells or lysates may run through a third protein. Some results given as binding are weak or reduced against the parent protein; the word gives no strength.

Sequences of proteins named here, by UniProt entry; tags and fusion partners are left off.
UniProt Q8VBV4: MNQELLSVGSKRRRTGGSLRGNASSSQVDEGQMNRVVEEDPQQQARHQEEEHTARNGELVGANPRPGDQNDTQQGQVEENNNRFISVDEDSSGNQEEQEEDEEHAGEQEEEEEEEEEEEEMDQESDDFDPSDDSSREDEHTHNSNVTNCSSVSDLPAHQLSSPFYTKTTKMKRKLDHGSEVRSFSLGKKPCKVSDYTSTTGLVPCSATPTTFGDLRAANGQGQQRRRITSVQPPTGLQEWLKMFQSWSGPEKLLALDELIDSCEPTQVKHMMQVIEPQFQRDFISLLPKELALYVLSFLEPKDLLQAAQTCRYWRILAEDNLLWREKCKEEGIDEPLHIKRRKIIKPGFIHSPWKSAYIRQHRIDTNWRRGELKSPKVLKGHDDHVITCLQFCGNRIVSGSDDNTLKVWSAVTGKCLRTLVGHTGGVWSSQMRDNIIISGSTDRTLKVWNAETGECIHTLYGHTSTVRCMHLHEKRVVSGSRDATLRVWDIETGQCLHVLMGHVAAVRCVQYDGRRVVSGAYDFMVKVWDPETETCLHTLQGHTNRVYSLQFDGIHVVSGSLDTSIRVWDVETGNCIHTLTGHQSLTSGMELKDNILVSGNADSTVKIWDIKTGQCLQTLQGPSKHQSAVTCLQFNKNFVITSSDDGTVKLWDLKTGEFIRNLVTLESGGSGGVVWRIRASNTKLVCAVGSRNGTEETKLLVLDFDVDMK
UniProt Q8BSK8: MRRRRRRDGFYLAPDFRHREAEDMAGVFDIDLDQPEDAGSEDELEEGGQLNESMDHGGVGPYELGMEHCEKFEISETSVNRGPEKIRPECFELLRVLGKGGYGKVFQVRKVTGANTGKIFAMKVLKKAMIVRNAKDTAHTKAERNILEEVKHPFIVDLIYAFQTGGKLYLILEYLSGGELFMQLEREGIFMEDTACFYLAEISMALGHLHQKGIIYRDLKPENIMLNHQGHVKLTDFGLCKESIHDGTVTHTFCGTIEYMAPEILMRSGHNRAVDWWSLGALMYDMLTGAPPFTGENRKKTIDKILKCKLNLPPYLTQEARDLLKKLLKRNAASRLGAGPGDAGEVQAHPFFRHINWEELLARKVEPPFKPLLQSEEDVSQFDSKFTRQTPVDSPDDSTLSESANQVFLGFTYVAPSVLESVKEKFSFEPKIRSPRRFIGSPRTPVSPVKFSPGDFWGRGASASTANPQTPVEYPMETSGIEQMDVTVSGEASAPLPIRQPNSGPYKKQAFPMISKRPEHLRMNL

Legend:
[1] = biological target: N-terminal Flag-tagged full-length FBXW7 (UniProt Q8VBV4); experiment: co-IP; 293T cells with Flag-FBXW7 and HA-S6K1; IP lysis buffer 25 mM Tris-HCl, 150 mM NaCl, 1% NP-40; anti-Flag-tag antibody, anti-HA-tag antibody or IgG with protein A/G beads overnight at 4 °C
[2] = biological target: FBXW7 (endogenous) (mouse (endogenous in brown fat and brown adipocytes)) (UniProt Q8VBV4); experiment: co-IP; endogenous, brown adipocytes (Appendix Fig. S11H)
[3] = biological target: FBXW7 (endogenous) (mouse (endogenous in brown fat and brown adipocytes)) (UniProt Q8VBV4); experiment: co-IP; endogenous, brown fat tissue of mice; anti-FBXW7 antibody, anti-S6K1 antibody or IgG with protein A/G beads overnight at 4 °C

| binding [1] | binding [2] | binding [3] | Substance |
| --- | --- | --- | --- |
| binds | – | – | HA-tagged S6K1 (from UniProt Q8BSK8 1-525) |
| – | binds | binds | S6K1 (endogenous) (from UniProt Q8BSK8 1-525) |
